Results taken from the supplement of paper PMC10849652.
The other results are listed elsewhere or left out.

Chains of the proteins cited; added tags and fusions are not shown. Lines headed by an entry give the natural chain unless they say otherwise; changes in a name come on top.
UniProt Q9BZX2: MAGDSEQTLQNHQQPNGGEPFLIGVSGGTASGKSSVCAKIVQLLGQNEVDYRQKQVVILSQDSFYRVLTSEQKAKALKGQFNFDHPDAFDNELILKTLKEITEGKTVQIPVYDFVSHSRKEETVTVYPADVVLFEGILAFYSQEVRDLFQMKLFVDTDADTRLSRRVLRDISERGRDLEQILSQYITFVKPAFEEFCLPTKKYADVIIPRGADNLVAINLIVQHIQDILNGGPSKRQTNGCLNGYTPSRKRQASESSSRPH
UniProt Q9NRR5, whole entry, looked up: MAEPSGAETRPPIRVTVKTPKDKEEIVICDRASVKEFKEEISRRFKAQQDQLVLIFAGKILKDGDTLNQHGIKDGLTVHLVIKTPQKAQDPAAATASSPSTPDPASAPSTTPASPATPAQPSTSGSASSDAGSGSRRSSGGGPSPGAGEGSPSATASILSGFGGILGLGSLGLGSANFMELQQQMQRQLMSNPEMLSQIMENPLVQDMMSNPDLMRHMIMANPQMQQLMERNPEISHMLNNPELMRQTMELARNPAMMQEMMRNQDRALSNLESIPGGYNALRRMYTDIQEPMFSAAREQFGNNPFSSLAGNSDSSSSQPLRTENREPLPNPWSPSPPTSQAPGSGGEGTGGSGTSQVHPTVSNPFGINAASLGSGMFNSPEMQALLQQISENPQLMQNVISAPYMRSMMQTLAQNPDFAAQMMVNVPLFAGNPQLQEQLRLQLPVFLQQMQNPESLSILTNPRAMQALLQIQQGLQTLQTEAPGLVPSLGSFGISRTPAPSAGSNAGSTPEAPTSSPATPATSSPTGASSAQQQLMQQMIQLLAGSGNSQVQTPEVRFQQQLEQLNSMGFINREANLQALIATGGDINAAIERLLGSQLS
UniProt P07919: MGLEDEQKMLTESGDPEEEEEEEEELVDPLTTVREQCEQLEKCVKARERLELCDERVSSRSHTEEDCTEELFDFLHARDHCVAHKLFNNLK
UniProt Q9UMX0, whole entry, looked up: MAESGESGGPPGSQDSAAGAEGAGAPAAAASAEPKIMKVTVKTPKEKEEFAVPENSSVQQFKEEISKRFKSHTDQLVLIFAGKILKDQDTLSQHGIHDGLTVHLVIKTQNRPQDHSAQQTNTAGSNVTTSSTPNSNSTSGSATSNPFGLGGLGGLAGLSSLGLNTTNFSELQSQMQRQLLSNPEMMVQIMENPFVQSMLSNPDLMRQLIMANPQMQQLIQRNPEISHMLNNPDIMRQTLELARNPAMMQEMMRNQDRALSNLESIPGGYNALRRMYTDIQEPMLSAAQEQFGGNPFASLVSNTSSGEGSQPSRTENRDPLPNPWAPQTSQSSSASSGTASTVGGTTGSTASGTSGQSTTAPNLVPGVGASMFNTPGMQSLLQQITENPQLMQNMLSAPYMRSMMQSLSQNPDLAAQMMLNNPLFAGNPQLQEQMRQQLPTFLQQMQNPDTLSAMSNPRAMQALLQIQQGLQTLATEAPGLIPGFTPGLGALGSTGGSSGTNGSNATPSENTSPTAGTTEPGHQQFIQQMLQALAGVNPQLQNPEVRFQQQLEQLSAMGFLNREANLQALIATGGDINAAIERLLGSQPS
UniProt Q9NQZ2: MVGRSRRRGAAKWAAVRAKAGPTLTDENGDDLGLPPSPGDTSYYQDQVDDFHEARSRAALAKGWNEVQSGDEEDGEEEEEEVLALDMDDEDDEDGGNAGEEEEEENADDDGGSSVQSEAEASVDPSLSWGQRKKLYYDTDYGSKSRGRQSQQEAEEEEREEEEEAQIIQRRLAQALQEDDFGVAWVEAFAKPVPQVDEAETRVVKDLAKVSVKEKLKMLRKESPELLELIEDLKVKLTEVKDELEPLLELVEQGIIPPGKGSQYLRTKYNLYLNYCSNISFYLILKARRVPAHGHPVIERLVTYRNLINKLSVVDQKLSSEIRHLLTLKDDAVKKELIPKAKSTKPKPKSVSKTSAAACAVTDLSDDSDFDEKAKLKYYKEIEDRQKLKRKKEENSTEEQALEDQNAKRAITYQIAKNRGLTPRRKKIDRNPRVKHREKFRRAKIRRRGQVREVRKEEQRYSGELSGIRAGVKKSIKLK
UniProt Q96RL1: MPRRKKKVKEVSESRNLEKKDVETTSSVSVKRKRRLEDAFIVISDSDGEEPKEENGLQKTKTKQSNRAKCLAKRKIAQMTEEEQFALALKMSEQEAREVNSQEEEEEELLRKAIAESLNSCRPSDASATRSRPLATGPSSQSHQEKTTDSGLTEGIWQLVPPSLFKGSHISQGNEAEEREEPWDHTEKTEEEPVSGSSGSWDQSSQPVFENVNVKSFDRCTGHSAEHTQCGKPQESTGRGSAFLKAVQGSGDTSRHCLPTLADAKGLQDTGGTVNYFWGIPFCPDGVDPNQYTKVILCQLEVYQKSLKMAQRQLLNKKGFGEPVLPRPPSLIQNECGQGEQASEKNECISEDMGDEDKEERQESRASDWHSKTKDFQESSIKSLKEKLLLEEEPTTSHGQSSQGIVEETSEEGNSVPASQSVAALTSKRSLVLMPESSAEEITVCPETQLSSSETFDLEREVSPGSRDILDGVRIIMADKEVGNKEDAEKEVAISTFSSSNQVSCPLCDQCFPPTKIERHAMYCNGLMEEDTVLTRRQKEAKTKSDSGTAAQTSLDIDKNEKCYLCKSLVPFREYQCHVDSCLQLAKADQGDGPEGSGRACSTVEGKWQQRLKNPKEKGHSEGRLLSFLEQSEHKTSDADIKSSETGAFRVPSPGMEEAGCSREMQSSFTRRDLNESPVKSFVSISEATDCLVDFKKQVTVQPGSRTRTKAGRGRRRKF
UniProt Q86UV5: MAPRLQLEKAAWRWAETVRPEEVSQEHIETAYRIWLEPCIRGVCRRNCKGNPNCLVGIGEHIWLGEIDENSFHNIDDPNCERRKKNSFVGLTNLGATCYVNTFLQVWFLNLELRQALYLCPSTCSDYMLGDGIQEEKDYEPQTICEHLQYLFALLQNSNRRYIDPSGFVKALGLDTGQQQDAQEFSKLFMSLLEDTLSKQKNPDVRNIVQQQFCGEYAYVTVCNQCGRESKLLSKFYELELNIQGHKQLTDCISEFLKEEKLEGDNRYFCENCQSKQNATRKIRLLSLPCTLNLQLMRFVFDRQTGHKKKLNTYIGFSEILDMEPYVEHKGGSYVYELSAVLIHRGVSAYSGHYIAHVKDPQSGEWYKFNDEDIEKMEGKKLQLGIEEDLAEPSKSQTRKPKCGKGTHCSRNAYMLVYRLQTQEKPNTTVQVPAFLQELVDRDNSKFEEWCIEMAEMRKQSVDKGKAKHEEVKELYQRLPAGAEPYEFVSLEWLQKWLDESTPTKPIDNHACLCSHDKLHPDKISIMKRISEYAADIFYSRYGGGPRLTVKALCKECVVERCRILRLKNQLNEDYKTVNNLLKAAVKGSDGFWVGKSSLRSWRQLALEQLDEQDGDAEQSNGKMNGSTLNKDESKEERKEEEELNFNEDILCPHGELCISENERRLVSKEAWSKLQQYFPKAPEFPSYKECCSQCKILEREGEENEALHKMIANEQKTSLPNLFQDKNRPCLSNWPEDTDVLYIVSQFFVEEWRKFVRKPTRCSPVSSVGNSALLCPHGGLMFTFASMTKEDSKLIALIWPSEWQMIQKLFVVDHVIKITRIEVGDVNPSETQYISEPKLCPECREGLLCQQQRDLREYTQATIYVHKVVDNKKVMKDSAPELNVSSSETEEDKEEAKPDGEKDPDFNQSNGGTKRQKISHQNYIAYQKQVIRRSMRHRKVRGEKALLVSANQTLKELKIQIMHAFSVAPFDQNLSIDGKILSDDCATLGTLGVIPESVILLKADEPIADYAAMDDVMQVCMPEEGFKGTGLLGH
UniProt Q9P2Y5: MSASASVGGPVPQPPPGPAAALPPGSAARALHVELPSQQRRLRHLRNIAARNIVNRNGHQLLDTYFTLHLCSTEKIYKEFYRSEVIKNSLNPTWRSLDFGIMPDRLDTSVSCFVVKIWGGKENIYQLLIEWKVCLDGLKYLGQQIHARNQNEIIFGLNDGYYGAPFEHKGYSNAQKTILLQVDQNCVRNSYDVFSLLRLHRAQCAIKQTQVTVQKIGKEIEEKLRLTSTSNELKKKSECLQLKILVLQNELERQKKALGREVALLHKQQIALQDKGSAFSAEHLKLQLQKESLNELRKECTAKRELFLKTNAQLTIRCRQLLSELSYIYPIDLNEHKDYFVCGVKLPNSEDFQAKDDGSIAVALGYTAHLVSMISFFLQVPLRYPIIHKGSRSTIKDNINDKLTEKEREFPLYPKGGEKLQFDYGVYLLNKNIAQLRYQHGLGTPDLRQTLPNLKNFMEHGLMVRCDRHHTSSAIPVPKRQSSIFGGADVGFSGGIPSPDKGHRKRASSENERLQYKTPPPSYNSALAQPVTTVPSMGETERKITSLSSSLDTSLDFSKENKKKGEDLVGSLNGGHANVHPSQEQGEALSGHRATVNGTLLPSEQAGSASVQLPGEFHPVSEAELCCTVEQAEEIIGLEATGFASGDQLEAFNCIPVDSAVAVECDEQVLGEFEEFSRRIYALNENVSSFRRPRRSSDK
UniProt Q9Y3C8: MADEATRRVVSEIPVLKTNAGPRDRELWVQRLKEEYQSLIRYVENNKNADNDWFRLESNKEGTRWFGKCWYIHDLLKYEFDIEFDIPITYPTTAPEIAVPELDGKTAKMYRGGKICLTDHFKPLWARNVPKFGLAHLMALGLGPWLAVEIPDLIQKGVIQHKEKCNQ
UniProt P15374: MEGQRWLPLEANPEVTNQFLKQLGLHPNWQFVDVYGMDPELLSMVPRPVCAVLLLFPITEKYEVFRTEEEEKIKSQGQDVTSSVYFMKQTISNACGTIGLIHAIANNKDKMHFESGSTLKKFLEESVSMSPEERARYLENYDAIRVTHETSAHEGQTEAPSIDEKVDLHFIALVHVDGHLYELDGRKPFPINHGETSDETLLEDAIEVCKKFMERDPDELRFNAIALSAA
UniProt Q7Z6J8: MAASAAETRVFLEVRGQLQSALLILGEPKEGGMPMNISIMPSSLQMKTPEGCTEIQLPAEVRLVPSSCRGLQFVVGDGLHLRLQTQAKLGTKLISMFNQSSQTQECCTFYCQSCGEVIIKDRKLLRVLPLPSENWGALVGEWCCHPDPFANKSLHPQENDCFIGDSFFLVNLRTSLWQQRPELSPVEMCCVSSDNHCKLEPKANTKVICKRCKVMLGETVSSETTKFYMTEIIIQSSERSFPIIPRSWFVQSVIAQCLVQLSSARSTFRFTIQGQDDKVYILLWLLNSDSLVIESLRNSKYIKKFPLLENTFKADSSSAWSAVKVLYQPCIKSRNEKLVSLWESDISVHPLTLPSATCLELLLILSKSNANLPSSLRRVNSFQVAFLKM
UniProt O95292, whole entry, looked up: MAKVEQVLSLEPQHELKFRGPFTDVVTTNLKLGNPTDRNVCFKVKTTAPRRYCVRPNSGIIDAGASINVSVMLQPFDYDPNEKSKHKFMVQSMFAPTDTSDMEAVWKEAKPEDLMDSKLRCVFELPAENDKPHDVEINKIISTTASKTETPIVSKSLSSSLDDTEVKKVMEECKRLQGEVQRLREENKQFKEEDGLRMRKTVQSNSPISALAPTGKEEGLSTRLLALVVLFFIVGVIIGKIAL
UniProt Q9UHP3: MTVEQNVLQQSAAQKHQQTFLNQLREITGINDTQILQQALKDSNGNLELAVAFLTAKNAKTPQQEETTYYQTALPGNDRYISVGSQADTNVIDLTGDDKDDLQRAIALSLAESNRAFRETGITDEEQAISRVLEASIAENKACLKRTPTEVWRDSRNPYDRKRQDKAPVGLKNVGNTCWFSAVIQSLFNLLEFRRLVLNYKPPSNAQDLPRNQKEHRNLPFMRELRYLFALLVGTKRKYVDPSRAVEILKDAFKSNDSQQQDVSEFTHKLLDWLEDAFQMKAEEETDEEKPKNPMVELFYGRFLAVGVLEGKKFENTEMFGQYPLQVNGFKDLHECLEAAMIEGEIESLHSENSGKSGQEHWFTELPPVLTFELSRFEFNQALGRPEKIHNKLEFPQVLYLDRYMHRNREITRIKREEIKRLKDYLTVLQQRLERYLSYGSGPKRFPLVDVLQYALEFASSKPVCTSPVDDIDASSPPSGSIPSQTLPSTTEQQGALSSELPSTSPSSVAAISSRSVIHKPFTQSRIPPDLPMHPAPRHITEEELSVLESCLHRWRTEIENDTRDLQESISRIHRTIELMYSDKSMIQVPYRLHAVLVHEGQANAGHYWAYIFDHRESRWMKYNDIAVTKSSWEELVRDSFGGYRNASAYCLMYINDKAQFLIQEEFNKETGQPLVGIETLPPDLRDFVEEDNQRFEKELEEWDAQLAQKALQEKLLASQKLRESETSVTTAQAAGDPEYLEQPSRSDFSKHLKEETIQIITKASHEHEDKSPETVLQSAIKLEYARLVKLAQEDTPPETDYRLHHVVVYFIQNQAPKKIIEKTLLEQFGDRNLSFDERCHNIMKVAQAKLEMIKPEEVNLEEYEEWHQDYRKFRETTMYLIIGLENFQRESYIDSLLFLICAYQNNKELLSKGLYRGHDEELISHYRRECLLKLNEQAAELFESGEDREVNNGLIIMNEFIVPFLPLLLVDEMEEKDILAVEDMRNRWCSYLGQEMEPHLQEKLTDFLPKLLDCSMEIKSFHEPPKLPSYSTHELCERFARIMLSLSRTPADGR

Legend:
Experiment in all cases: log2 fold change, soluble protein after heating vs DMSO (PISA); higher = thermal stabilisation; K562 cells, 10 uM, 30 min; active = over 0.2 and 3.5 SD of the protein, either way, in both replicates (recomputed)
[1] = compound: CC1=C(C=C(C=C1)NC(=O)C2=CC(=CC=C2)C(C)(C)C#N)NC3=CC4=C(C=C3)N=CN(C4=O)C
Summary of the method: (§1)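 K562 cells at 2×10^6 cells/mL were treated with 10 μM compound for 30 min. Aliquots were heated for 3 min across 48°C-58°C, pooled, and extracted in PBS with 0.5% NP-40 at 4°C; soluble protein was the supernatant after 21,000xg for 90 min. Soluble protein was quantified by TMTpro 16plex LC-MS/MS with channel sums equalised, and reported as log2 fold change in thermal stability against DMSO controls, with values from duplicates.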

[2] = compound: CC1=C(C=C(C=C1)NC(=O)C2=CC(=CC=C2)N(C)C)NC(=O)C3=CC=C(C=C3)O
Summary of the method: as §1

[3] = compound: CC1=CC=C(C=C1)SC2=C3C=C(SC3=CN=C2)C(=O)N
Summary of the method: as §1

[4] = compound: CC1=NC(=CC=C1)C2=C(N=C(N2)C(C)(C)C)C3=CC4=NC=CN=C4C=C3
Summary of the method: as §1

Nexturastat A = compound: CCCCN(Cc1ccc(C(=O)NO)cc1)C(=O)Nc1ccccc1 [Nexturastat A]
Summary of the method: as §1

vemurafenib = compound: CCCS(=O)(=O)Nc1ccc(F)c(C(=O)c2c[nH]c3ncc(-c4ccc(Cl)cc4)cc23)c1F [vemurafenib]
Summary of the method: as §1

[5] = compound: CCCS(=O)(=O)Nc1ccc(F)c(C(=O)c2c[nH]c3ncc(Cl)cc23)c1F
Summary of the method: as §1

[6] = compound: CCCc1cc(C)[nH]c(=O)c1CNC(=O)c1cc(-c2ccnc(N3CCN(C)CC3)c2)cc2c1cnn2C(C)C
Summary of the method: as §1

givinostat = compound: CCN(CC)Cc1ccc2cc(COC(=O)Nc3ccc(C(=O)NO)cc3)ccc2c1 [givinostat]
Summary of the method: as §1

barasertib = compound: CCN(CCCOc1ccc2c(Nc3cc(CC(=O)Nc4cccc(F)c4)[nH]n3)ncnc2c1)CCOP(=O)(O)O [barasertib]
Summary of the method: as §1

Measured: log2 fold change

USP24 (UniProt Q9UPU5)
inactive: [1] 0.114 | [2] -0.026 | [3] 0 | [4] 0.012 | Nexturastat A -0.047 | vemurafenib 0 | [5] 0.052 | [6] -0.042 | givinostat 0.011 | barasertib -0.053

UCK2 (UniProt Q9BZX2)
inactive: [1] 0.017 | [2] 0.045 | [3] -0.006 | [4] 0.016 | Nexturastat A 0 | vemurafenib 0.016 | [5] 0.005 | [6] -0.011 | givinostat 0.032 | barasertib 0.031

UBQLN4 (UniProt Q9NRR5)
inactive: [1] -0.02 | [2] -0.012 | [3] 0.012 | [4] 0.03 | Nexturastat A -0.072 | vemurafenib 0.023 | [5] 0.004 | [6] -0.035 | givinostat -0.016 | barasertib -0.002

UQCRH (UniProt P07919)
inactive: [1] -0.048 | [2] -0.027 | [3] 0.29 | [4] -0.062 | Nexturastat A -0.021 | vemurafenib -0.083 | [5] -0.161 | [6] -0.092 | givinostat -0.015 | barasertib 0.012

Two records picked at random from those above:
UQCRH (UniProt P07919)
inactive: [1] -0.048 | [2] -0.027 | [3] 0.29 | [4] -0.062 | Nexturastat A -0.021 | vemurafenib -0.083 | [5] -0.161 | [6] -0.092 | givinostat -0.015 | barasertib 0.012

USP24 (UniProt Q9UPU5)
inactive: [1] 0.114 | [2] -0.026 | [3] 0 | [4] 0.012 | Nexturastat A -0.047 | vemurafenib 0 | [5] 0.052 | [6] -0.042 | givinostat 0.011 | barasertib -0.053

Remaining list, next part

USP20 (UniProt Q9Y2K6)
inactive: [1] -0.005 | [2] -0.137 | [3] 0.014 | [4] -0.009 | Nexturastat A 0.209 | vemurafenib -0.034 | [5] 0.034 | [6] 0.068 | givinostat 0.03 | barasertib 0.004

UBQLN1 (UniProt Q9UMX0)
inactive: [1] -0.002 | [2] -0.004 | [3] 0.027 | [4] -0.022 | Nexturastat A 0.027 | vemurafenib 0.037 | [5] 0.02 | [6] 0.003 | givinostat -0.002 | barasertib 0.017

UTP3 (UniProt Q9NQZ2)
inactive: [1] -0.016 | [2] 0.008 | [3] -0.094 | [4] -0.048 | Nexturastat A 0.308 | vemurafenib 0.004 | [5] 0.022 | [6] 0.101 | givinostat 0.075 | barasertib -0.08

UIMC1 (UniProt Q96RL1)
inactive: [1] -0.08 | [2] -0.04 | [3] -0.033 | [4] -0.106 | Nexturastat A 0.312 | vemurafenib -0.036 | [5] -0.076 | [6] -0.11 | givinostat -0.03 | barasertib -0.12

UBR4 isoform 2 (UniProt Q5T4S7)
inactive: [1] -0.001 | [2] -0.04 | [3] -0.04 | [4] -0.009 | Nexturastat A 0.15 | vemurafenib -0.022 | [5] 0.019 | [6] 0.051 | givinostat 0.016 | barasertib 0.014

USP48 isoform 8 (UniProt Q86UV5)
inactive: [1] 0.128 | [2] -0.094 | [3] -0.054 | [4] 0.119 | Nexturastat A -0.006 | vemurafenib 0.162 | [5] 0.142 | [6] 0.103 | givinostat 0.144 | barasertib 0.14

VARS2, A0A0G2JL52
inactive: [1] -0.003 | [2] 0.005 | [3] -0.025 | [4] 0.012 | Nexturastat A 0.005 | vemurafenib 0.03 | [5] 0.047 | [6] -0.018 | givinostat -0.015 | barasertib 0.052

USP7 (UniProt Q93009)
inactive: [1] 0.054 | [2] -0.046 | [3] 0.007 | [4] 0.012 | Nexturastat A 0.015 | vemurafenib 0.036 | [5] 0.068 | [6] 0 | givinostat 0.083 | barasertib 0.073

UVRAG (UniProt Q9P2Y5)
inactive: [1] -0.024 | [2] 0.01 | [3] 0.001 | [4] -0.03 | Nexturastat A 0.011 | vemurafenib -0.066 | [5] 0.053 | [6] -0.039 | givinostat -0.01 | barasertib -0.075

UFC1 (UniProt Q9Y3C8)
inactive: [1] 0.004 | [2] -0.013 | [3] 0.036 | [4] -0.015 | Nexturastat A -0.057 | vemurafenib -0.021 | [5] -0.038 | [6] 0.147 | givinostat -0.07 | barasertib 0.011

USO1 isoform 2 (UniProt O60763)
inactive: [1] 0.009 | [2] -0.013 | [3] 0.02 | [4] 0.038 | Nexturastat A -0.029 | vemurafenib 0.063 | [5] 0.062 | [6] -0.018 | givinostat 0 | barasertib 0.031

UCHL3 (UniProt P15374)
inactive: [1] -0.003 | [2] -0.016 | [3] 0.076 | [4] -0.008 | Nexturastat A -0.057 | vemurafenib 0.042 | [5] 0.022 | [6] -0.024 | givinostat -0.038 | barasertib 0.028

UPF3B (UniProt Q9BZI7)
inactive: [1] -0.047 | [2] -0.004 | [3] 0 | [4] -0.053 | Nexturastat A 0.29 | vemurafenib -0.108 | [5] -0.069 | [6] 0.139 | givinostat 0.03 | barasertib -0.058

USP30 (UniProt Q70CQ3)
inactive: [1] 0.217 | [2] -0.074 | [3] 0 | [4] 0.032 | Nexturastat A -0.144 | vemurafenib 0.272 | [5] -0.072 | [6] -0.007 | givinostat -0.043 | barasertib -0.202

USP5 (UniProt P45974)
inactive: [1] 0.01 | [2] -0.019 | [3] -0.02 | [4] 0.022 | Nexturastat A -0.02 | vemurafenib 0.013 | [5] -0.069 | [6] -0.065 | givinostat -0.003 | barasertib 0.031

USP34 (UniProt Q70CQ2)
inactive: [1] -0.02 | [2] -0.094 | [3] 0.077 | [4] 0 | Nexturastat A -0.12 | vemurafenib 0.08 | [5] 0.032 | [6] 0.052 | givinostat 0.094 | barasertib 0.069

UBR7 (UniProt Q8N806)
inactive: [1] -0.037 | [2] -0.003 | [3] 0 | [4] 0.023 | Nexturastat A -0.073 | vemurafenib 0.032 | [5] -0.002 | [6] -0.024 | givinostat -0.033 | barasertib 0.026

UBE3D (UniProt Q7Z6J8)
inactive: [1] -0.036 | [2] 0.036 | [3] -0.049 | [4] 0.01 | Nexturastat A -0.016 | vemurafenib 0.014 | [5] 0.04 | [6] 0.006 | givinostat -0.075 | barasertib 0.018

UGGT1 (UniProt Q9NYU2)
inactive: [1] -0.001 | [2] 0.004 | [3] 0.001 | [4] -0.018 | Nexturastat A 0.014 | vemurafenib 0 | [5] 0.003 | [6] 0.024 | givinostat 0.02 | barasertib 0

UPF2 (UniProt Q9HAU5)
inactive: [1] 0.017 | [2] -0.042 | [3] -0.052 | [4] -0.105 | Nexturastat A 0.145 | vemurafenib -0.044 | [5] -0.054 | [6] 0.146 | givinostat 0.029 | barasertib -0.064

VAPB (UniProt O95292)
inactive: [1] 0.047 | [2] -0.017 | [3] 0.007 | [4] 0.013 | Nexturastat A -0.096 | vemurafenib 0.008 | [5] -0.029 | [6] -0.023 | givinostat 0.005 | barasertib 0.004

USP25 isoform 3 (UniProt Q9UHP3)
inactive: [1] 0.004 | [2] 0.008 | [3] -0.009 | [4] 0.045 | Nexturastat A -0.029 | vemurafenib 0.04 | [5] 0.027 | [6] 0.024 | givinostat 0.015 | barasertib 0.02

UGCG (UniProt Q16739)
inactive: [1] -0.169 | [2] -0.314 | [3] 0.002 | [4] -0.039 | Nexturastat A 0.13 | vemurafenib -0.048 | [5] -0.226 | [6] -0.02 | givinostat 0.059 | barasertib -0.049

USP14 (UniProt P54578)
inactive: [1] 0.023 | [2] -0.018 | [3] 0.01 | [4] 0.034 | Nexturastat A -0.069 | vemurafenib 0.021 | [5] 0.093 | [6] 0.012 | givinostat -0.006 | barasertib 0.032
